Measurements published in the supplement of paper PMC12819154, “High-throughput peptide-centric local stability assay extends protein–ligand identification to membrane proteins, tissues and bacteria” (Nature Structural & Molecular Biology, 2025).
The list shows a part of the results. Small differences around the control level are noise.

The chains behind the UniProt entries cited, without tags or fusion partners. Where a name states a change or a piece, a line headed by the entry shows the natural chain unless it says otherwise.
UniProt Q99828: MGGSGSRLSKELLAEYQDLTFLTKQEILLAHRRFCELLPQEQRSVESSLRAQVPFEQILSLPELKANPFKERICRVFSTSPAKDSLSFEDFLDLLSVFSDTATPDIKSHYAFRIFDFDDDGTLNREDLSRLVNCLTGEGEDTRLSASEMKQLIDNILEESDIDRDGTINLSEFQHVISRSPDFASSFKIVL
UniProt Q9BSR8: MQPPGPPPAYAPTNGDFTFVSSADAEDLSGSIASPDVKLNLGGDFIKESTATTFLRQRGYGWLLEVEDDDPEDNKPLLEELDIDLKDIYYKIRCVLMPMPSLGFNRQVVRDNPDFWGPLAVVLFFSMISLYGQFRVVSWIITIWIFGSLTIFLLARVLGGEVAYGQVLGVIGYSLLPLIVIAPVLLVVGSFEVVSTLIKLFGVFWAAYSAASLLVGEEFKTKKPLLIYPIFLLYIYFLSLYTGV
UniProt Q99543: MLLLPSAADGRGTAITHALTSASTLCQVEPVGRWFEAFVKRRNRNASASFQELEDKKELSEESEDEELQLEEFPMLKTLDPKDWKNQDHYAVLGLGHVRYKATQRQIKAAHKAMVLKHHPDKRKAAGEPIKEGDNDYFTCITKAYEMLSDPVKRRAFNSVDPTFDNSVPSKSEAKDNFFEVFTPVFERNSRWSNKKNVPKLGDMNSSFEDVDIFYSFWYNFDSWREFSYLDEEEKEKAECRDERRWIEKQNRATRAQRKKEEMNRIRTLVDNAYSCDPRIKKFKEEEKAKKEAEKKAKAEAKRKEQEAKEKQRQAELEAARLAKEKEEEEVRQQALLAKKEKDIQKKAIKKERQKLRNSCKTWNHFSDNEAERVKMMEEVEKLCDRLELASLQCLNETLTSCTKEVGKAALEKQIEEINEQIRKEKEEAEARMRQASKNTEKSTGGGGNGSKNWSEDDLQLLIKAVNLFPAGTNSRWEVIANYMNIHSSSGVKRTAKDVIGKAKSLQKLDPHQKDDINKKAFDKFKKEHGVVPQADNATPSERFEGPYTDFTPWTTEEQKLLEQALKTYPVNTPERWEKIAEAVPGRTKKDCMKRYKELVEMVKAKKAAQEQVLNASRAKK
UniProt Q9BT49: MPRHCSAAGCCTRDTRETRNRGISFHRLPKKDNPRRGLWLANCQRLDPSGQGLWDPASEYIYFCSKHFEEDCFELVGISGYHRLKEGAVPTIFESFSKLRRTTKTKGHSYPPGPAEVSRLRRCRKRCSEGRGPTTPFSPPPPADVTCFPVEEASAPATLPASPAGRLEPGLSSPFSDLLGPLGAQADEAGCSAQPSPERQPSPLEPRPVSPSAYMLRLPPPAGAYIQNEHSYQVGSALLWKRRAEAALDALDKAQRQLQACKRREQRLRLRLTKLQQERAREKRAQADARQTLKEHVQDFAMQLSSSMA
UniProt Q99797: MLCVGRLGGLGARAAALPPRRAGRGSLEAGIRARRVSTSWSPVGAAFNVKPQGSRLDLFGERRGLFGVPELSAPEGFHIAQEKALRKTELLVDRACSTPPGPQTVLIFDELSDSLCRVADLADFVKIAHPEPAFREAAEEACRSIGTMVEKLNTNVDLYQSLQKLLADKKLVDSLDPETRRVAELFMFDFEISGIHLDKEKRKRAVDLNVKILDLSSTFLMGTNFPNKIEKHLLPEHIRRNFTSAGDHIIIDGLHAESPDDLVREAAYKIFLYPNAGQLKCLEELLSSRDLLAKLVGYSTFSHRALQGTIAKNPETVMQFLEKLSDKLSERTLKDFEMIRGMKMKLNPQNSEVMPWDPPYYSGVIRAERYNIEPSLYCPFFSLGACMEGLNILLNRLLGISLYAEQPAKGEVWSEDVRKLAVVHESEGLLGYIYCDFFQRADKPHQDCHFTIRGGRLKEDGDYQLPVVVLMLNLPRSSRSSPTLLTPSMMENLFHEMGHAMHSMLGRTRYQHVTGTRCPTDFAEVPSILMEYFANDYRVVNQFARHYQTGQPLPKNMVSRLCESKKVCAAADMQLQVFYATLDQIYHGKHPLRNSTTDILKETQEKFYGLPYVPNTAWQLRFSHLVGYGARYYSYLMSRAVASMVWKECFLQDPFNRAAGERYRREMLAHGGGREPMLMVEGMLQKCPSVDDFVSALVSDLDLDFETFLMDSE
UniProt Q9BVL4, whole entry: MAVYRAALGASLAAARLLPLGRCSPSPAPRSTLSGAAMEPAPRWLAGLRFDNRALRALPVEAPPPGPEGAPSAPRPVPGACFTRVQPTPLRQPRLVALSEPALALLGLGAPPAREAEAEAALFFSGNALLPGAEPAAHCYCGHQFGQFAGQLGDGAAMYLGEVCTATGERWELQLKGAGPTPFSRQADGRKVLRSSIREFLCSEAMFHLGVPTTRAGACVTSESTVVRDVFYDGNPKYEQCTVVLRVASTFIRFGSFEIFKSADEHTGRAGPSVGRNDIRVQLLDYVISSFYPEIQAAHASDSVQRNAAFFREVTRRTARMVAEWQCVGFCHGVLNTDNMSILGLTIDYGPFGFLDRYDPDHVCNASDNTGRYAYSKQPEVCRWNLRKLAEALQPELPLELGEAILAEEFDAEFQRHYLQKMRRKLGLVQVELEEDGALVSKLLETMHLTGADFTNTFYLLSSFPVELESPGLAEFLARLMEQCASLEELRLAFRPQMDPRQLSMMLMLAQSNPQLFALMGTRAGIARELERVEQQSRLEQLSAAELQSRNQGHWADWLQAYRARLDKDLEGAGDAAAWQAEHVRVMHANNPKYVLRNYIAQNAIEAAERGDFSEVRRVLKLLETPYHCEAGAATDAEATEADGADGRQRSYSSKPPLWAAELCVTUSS
UniProt Q9BT09: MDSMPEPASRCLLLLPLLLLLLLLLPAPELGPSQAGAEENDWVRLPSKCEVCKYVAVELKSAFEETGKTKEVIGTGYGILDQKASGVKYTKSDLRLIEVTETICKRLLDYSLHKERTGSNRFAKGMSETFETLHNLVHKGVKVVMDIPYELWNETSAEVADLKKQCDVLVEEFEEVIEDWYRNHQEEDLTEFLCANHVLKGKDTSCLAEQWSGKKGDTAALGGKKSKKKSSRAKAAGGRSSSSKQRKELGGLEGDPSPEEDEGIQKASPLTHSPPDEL
UniProt Q9BQE4, whole entry: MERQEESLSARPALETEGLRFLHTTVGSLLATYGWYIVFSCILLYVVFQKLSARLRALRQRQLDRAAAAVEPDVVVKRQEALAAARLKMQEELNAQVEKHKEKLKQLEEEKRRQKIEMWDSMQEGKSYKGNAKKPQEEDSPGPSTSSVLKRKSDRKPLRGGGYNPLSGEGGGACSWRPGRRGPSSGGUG
UniProt Q9BQQ3: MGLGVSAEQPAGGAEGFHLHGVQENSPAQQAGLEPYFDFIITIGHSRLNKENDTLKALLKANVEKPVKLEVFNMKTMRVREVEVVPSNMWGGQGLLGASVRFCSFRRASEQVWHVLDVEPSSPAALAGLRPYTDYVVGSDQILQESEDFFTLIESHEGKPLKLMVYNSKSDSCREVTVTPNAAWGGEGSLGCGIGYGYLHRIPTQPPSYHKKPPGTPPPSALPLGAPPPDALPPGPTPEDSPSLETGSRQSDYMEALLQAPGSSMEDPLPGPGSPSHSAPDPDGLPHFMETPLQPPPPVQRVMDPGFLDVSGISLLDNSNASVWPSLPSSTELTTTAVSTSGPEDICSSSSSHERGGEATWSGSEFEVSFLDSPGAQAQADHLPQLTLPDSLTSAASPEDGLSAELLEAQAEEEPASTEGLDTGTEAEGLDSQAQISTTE
UniProt Q9BU76: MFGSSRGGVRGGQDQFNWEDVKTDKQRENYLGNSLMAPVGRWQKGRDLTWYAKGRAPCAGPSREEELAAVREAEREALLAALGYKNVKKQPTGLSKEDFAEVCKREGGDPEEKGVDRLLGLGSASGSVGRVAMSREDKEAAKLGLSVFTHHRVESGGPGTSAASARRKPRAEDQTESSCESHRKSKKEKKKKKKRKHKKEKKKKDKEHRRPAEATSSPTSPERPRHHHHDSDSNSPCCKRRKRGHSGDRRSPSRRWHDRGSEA
UniProt Q9BSU1: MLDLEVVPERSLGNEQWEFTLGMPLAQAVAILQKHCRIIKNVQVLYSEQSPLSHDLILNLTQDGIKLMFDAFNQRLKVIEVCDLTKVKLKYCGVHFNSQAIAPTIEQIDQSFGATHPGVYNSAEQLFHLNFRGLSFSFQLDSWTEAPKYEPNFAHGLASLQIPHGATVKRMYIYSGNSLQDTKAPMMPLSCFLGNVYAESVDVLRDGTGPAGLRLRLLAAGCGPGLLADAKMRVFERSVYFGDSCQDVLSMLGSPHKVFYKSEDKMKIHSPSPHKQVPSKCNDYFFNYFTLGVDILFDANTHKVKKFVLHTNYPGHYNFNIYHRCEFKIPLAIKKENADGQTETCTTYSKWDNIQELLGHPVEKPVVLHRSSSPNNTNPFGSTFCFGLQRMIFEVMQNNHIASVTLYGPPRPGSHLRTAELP
UniProt Q99622: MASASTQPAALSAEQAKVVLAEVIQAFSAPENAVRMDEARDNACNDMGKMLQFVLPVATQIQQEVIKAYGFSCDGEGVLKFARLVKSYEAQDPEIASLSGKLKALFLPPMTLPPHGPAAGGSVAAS
UniProt Q9BU61: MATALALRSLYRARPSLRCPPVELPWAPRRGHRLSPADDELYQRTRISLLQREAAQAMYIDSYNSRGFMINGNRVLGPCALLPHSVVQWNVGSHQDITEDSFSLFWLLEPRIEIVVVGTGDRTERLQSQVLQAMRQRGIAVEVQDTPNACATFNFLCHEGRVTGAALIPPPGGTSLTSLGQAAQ
UniProt Q99755: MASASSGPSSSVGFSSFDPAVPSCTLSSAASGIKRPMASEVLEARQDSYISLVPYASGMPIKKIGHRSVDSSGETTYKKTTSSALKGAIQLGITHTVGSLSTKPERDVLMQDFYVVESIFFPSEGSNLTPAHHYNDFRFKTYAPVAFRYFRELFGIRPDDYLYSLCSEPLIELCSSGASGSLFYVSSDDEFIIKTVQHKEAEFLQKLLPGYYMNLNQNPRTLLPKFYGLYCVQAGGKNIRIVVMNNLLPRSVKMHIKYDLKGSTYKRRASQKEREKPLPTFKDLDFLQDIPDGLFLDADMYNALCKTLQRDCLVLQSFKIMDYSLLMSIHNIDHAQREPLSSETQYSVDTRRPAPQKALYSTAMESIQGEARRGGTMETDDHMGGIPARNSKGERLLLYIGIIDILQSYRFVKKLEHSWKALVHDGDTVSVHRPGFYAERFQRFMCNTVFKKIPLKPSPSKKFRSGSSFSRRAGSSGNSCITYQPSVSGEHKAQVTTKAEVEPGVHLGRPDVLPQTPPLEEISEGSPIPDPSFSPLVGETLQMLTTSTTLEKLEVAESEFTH
UniProt Q9BTU6: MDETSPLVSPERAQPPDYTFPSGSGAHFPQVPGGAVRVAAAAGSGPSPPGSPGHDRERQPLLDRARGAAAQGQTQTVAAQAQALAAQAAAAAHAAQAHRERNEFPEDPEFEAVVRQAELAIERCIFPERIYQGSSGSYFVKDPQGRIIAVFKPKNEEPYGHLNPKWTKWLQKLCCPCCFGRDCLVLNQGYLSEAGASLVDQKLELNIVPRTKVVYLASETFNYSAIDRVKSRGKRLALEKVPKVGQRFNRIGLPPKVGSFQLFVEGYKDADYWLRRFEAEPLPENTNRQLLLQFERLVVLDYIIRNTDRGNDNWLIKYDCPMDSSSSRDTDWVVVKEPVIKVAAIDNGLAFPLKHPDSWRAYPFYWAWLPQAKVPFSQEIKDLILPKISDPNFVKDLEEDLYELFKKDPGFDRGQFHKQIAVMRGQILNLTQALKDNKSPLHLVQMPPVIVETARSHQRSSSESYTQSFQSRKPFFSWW
UniProt Q9BR77: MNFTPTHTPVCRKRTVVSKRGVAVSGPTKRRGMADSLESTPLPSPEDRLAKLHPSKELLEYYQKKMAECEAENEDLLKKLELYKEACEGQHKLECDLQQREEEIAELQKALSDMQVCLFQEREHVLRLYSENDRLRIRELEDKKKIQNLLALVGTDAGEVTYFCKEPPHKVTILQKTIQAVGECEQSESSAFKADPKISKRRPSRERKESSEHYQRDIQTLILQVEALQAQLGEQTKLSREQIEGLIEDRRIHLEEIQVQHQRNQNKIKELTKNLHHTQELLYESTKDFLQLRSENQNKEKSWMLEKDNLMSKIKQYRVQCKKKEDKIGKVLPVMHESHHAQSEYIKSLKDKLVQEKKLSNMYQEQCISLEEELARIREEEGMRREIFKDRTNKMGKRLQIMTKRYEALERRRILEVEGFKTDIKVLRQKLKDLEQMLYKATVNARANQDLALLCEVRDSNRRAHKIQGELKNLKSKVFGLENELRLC
UniProt Q9BRQ0: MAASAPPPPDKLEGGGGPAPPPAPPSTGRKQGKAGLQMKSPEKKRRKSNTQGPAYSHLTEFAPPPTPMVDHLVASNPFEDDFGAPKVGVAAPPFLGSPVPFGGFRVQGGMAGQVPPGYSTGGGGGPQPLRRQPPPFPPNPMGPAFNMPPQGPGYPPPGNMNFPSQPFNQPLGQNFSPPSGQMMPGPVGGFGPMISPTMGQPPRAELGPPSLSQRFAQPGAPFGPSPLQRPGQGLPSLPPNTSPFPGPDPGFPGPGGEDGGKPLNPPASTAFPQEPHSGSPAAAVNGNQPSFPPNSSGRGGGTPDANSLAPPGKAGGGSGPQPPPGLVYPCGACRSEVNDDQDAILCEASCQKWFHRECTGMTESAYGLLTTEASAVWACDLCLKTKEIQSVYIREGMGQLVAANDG

compound: CN[C@@H]1C[C@H]2O[C@@](C)([C@@H]1OC)n1c3ccccc3c3c4c(c5c6ccccc6n2c5c31)C(=O)NC4 [staurosporine]; assay: log2 fold change of tryptic peptide abundance, ligand vs vehicle (limited proteolysis) (log2 ratio); higher = more trypsin-susceptible (destabilized); conditions: ligand concentration: 20 uM; sample: K562 cleared lysate; digestion: 4 min, 22 C (HT-PELSA RT4min, Orbitrap Astral)

Target	log2 fold change
DDA1 (peptide sequence: RPSVYLPTR, peptide start residue: 31) (UniProt Q9BW61)	0.202
CIB1 (peptide sequence: FCELLPQEQR, peptide start residue: 34) (UniProt Q99828)	-0.0756
RPP25 (peptide sequence: RSLGEPAAGEGSAK, peptide start residue: 171) (UniProt Q9BUL9)	0.38
YIPF4 (peptide sequence: ESTATTFLR, peptide start residue: 48) (UniProt Q9BSR8)	0.152
DNAJC2 (peptide sequence: WEVIANYMNIHSSSGVKR, peptide start residue: 477) (UniProt Q99543)	0.893
THAP7 (peptide sequence: LKEGAVPTIFESFSK, peptide start residue: 84) (UniProt Q9BT49)	0.134
KIFC3 (peptide sequence: SLSALGDVIAALR, peptide start residue: 700) (UniProt Q9BVG8)	-0.274
MIPEP (peptide sequence: HYQTGQPLPK, peptide start residue: 546) (UniProt Q99797)	-0.524
UniProt Q9BVL4 (peptide sequence: YAYSKQPEVCR, peptide start residue: 373)	-0.336
CNPY3 (peptide sequence: SAFEETGKTK, peptide start residue: 61) (UniProt Q9BT09)	-0.59
UniProt Q9BQE4 (peptide sequence: AAAAVEPDVVVKR, peptide start residue: 66)	-0.299
RHOXF2 (peptide sequence: EQFPSEFLR, peptide start residue: 156) (UniProt Q9BQY4)	0.123
GORASP1 (peptide sequence: ANVEKPVKLEVFNMK, peptide start residue: 61) (UniProt Q9BQQ3)	-0.0933
UniProt Q9BU76 (peptide sequence: HHHHDSDSNSPCCKR, peptide start residue: 226)	-0.829
C16orf70 (peptide sequence: LKVIEVCDLTK, peptide start residue: 76) (UniProt Q9BSU1)	0.114
PRPF18 (peptide sequence: CVEYNAL, peptide start residue: 336) (UniProt Q99633)	-0.264
ABCA3 (peptide sequence: ILAPSPDSLLHTPLIIK, peptide start residue: 1368) (UniProt Q99758)	-0.553
UniProt Q9BSI4 (peptide sequence: AKPGTHLPQGPSSR, peptide start residue: 234)	-0.298
C12orf57 (peptide sequence: SYEAQDPEIASLSGK, peptide start residue: 87) (UniProt Q99622)	-0.317
UniProt Q9BU61 (peptide sequence: LSPADDELYQR, peptide start residue: 34)	-0.03
PIP5K1A (peptide sequence: KIPLKPSPSK, peptide start residue: 452) (UniProt Q99755)	0.994
PI4K2A (peptide sequence: LALEKVPK, peptide start residue: 236) (UniProt Q9BTU6)	0.236
HSD17B10 (peptide sequence: VLDVNLMGTFNVIR, peptide start residue: 117) (UniProt Q99714)	-0.734
TRMO (peptide sequence: AETQPMAPHCPAGR, peptide start residue: 303) (UniProt Q9BU70)	0.25
RBM4B (peptide sequence: VADFTEQYNEQYGAVR, peptide start residue: 183) (UniProt Q9BQ04)	-0.244
UniProt Q9BWC9 (peptide sequence: VKDADGVLCR, peptide start residue: 176)	0.396
CCDC77 (peptide sequence: NLHHTQELLYESTKDFLQLR, peptide start residue: 274) (UniProt Q9BR77)	0.712
PYGO2 (peptide sequence: EGMGQLVAANDG, peptide start residue: 395) (UniProt Q9BRQ0)	-0.459

Quoted from the listing:
UniProt Q9BQE4 (peptide sequence: AAAAVEPDVVVKR, peptide start residue: 66) – log2 fold change: -0.299
PRPF18 (peptide sequence: CVEYNAL, peptide start residue: 336) (UniProt Q99633) – log2 fold change: -0.264
